Source: patent US8134006B2, “Dialkylphenyl compounds having β2 adrenergic receptor agonist and muscarinic receptor antagonist activity” (Theravance, Inc., priority 2006, dated 2012)
Some of these results come from one statement about several compounds together.

System: acetylcholine or histamine bronchoconstriction
Test: Plethysmograph guinea pig assay for bronchoprotective efficacy and duration
Conditions: 10 μg/mL, inhalation

How did the “duration of significant bronchoprotection” value turn out when C[N+]1(C)[C@@H]2C[C@@H](OC(=O)C(O)(c3cccs3)c3cccs3)C[C@H]1[C@@H]1O[C@@H]12 [tiotropium, reference compound] was run?
The value was “at least 24 hours”.
